PubChem BioAssay AID1224830, NIAID, 2016
The whole screen tested about 18,000 reagents; this is a part drawn at random. Of all reagents, about 2,900 (16%) got an active call. 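Calls are made per well; low scores hint the gene aids the LPS response, high scores that it dampens it.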 Unmarked entries are inactive. Repeated entries: four replicate wells of each siRNA pool. Reagent sequences are not shown.

- Test: 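Host factors that control LPS-induced TNF expression in human macrophages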 (primary screen)
- Cell system: human THP-1 monocytic leukaemia cells, TNF dual-luciferase reporter clone, PMA-differentiated to macrophage-like cells
- Reagent: siRNA pool against human genes, 50 nM
- Timing: LPS for 4 h, given about 3 days after siRNA transfection
- Conditions: bacterial LPS (TLR4 ligand), 10 ng/ml
- Detection: 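Ratio of firefly to renilla light, scaled to the plate median and expressed as a robust z-score per replicate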
- Reading the numbers: TNF reporter robust z-score: higher = stronger TNF reporter response to LPS
- Active means: 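Each well counts as active if its z-score is over 2.8 or under -1.5; controls are left without a call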

After knock-down of OIP5, the record shows TNF reporter robust z-score -0.66. Silencing of OIP5 gave: TNF reporter robust z-score -0.44. Against OIP5, the values are TNF reporter robust z-score -0.63. OIP5 showed TNF reporter robust z-score -0.49. Against ABHD17A, the values are TNF reporter robust z-score -0.6. After knock-down of ABHD17A, the screen gave TNF reporter robust z-score -0.34.

Depletion of ABHD17A gave: TNF reporter robust z-score -0.44. After knock-down of ABHD17A, the record shows TNF reporter robust z-score -0.96. Against NRG3 the deposit lists TNF reporter robust z-score 0.52. Silencing of NRG3 gave: TNF reporter robust z-score 0.81. After knock-down of NRG3, the record shows TNF reporter robust z-score 0.73. With knock-down of NRG3 the results were TNF reporter robust z-score 0.71.

CACNA1B gave TNF reporter robust z-score 0.47. Depletion of CACNA1B resulted in: TNF reporter robust z-score 3.51 (active). Depletion of CACNA1B gave: TNF reporter robust z-score -0.31. After knock-down of CACNA1B, the record shows TNF reporter robust z-score 0.04. With knock-down of BANP the results were TNF reporter robust z-score 0.22. With knock-down of BANP, the record shows TNF reporter robust z-score 0.78.

Silencing of BANP came out at: TNF reporter robust z-score -1.06. BANP gave TNF reporter robust z-score 0.46. Silencing of ERI1 gave: TNF reporter robust z-score -0.68. With knock-down of ERI1, the screen gave TNF reporter robust z-score 0.17. ERI1 showed TNF reporter robust z-score -0.13. With knock-down of ERI1, the screen gave TNF reporter robust z-score -0.17.

Against SLC9A4, the values are TNF reporter robust z-score -0.18. Silencing of SLC9A4 came out at: TNF reporter robust z-score 0.1. After knock-down of SLC9A4, the screen gave TNF reporter robust z-score 0.46. After knock-down of SLC9A4, the screen gave TNF reporter robust z-score 0.55. Silencing of HMGN3 resulted in: TNF reporter robust z-score -1.03. Depletion of HMGN3 gave: TNF reporter robust z-score -0.02.

Against HMGN3 the deposit lists TNF reporter robust z-score -0.2. Depletion of HMGN3 resulted in: TNF reporter robust z-score -0.7. RABGGTB scored TNF reporter robust z-score 2.02. With knock-down of RABGGTB, the record shows TNF reporter robust z-score 1.58. Depletion of RABGGTB resulted in: TNF reporter robust z-score -0.32. RABGGTB scored TNF reporter robust z-score -0.01.

Silencing of RHOBTB1 came out at: TNF reporter robust z-score 0.26. With knock-down of RHOBTB1, the screen gave TNF reporter robust z-score 0.14. For RHOBTB1 the deposit lists TNF reporter robust z-score -0.67. Against RHOBTB1 the deposit lists TNF reporter robust z-score -0.06. PLEKHA8 scored TNF reporter robust z-score -0.49. After knock-down of PLEKHA8, the record shows TNF reporter robust z-score -0.64.

Depletion of PLEKHA8 resulted in: TNF reporter robust z-score -0.63. Against BGN the deposit lists TNF reporter robust z-score -0.89. Depletion of BGN gave: TNF reporter robust z-score -0.83. BGN showed TNF reporter robust z-score -0.55. Silencing of BGN resulted in: TNF reporter robust z-score -0.42.
